Measured values from the supplement of paper PMC12764529.
± gives the half width of the 95% confidence interval. For many entries, trypsin and chymotrypsin gave values far apart.

How the values were obtained:
[1] = folding stability dG unfold from trypsin proteolysis; higher = more stable
Method: (§1)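 Folding stability of de novo designed mini-proteins (<80 aa, no Cys; designed by TrROS, TrMRF, ProteinMPNN and the joint model) was measured by cDNA display proteolysis with trypsin and chymotrypsin. Each protease was used at 11 concentrations in a threefold dilution series plus a no-protease condition. K50 was inferred by Bayesian fitting of sequencing counts, and dG unfold was derived against a sequence-predicted unfolded-state K50 (Tsuboyama et al. method). Sequences shown include variable-length N-terminal GS-type padding (SAGGSAGG...) inside a display construct carrying a PA tag. Rows were kept only if the AF2 dimer inter-PAE was >15, to exclude likely homo-oligomers.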

[2] = folding stability dG unfold (combined trypsin and chymotrypsin); higher = more stable
Method: as §1

[3] = folding stability dG unfold from chymotrypsin proteolysis; higher = more stable
Method: as §1

Sequence | folding stability dG unfold [1] [kcal/mol] | folding stability dG unfold [2] [kcal/mol] | folding stability dG unfold [3] [kcal/mol]
SAGGSAGGSAGGMLAAIIYKEGDEKEIVEFDSVEEVEEKSKELGVEVEIVTKEEAEKLLSAGGSAGGSAGGS [r10_66_TrMRF] | 1.26 ± 0.084 | 0.565 ± 0.24 | –
SAGGSAGGSAGGSGSMVVEKVSPEPNVTKTIFFEPPEEGLVITVETLEGDTWSSQIILQSAGGSAGGSAGGS [r4_484_JUSTAS] | 0.657 ± 0.097 | -0.0129 ± 0.3 | –
SAGGSAGGSAGSPLPPGVPVVTPTTTVDTSSDLVTVTDVTVTPEPGEVTSTVTVVPASLLSAGGSAGGSAGG [r11_468_JUSTAS] | 1.23 ± 0.091 | 0.3 ± 0.22 | –
MLTAEEIRELAEELAKKLRELFPEKDLKVEIEVEVEVEVTRVEYDEETGEETVERERVRLKLTIKIEPKEES [r1_90_TrROS_Hall] | 3.32 ± 0.28 | – | –
SAGGSALIVLEGDLDSVVALAKEAGDPNVKVEPVADFNDDPSEPRLYRITIERDGEPDGELLFLDPSAGGSA [r15_428_TrMRF] | -0.0896 ± 0.1 | < -1 | –
SAGGSAAIQIPIPPGDKRPITFPIYIGNYPFRVDAEINPKEPGYVKQDIENPGDGKEVEETIPLDDSAGGSA [r15_328_TrROS] | 1.36 ± 0.074 | 0.56 ± 0.3 | –
SAGGMKVEITEIEEKDGYIVIRLKVEVEVNGEKYTFEMTLVIKVEPPPPKKVELSEEELLDENGKVVSAGGS [r8_234_TrROS_Hall] | 1.92 ± 0.11 | > 6 | –
SAGGSAGGSDILKELAEEFPITSIEITENGHISVMMQAPKPGYMYEIEIDIEDNKVEIEPYKPSAGGSAGGS [r12_944_TrROS] | 1.34 ± 0.15 | 0.605 ± 0.17 | –
SAGMEELIKKALELAEELAKALHPSPKPVNFEVKIEPLYIDEENGYAHLKVTIKSENEEHEFEITIKLESAG [r5_53_TrMRF] | 3.11 ± 0.32 | > 6 | –
PILEKALEAAKKAIENGEKEVEITVKLEDGSEIKIKVKVEKKDGKIVKVEIEVEITNPNGEKITLTFTFEKS [r1_254_TrROS_Hall] | 1.98 ± 0.26 | > 6 | –
SAGGSAGGSASSSPIGTSESSLPNGIRITTTTYSNSGSLTTVTTVEIPPLTEEERAAVLAASAGGSAGGSAG [r3_158_JUSTAS] | – | 0.394 ± 0.25 | 1.11 ± 0.15
SAGGSAGGSAGGAIVVNPAGNTARVVLPNGEVKTLPAEKAAEAQKELGLPDVPIFVNPGASAGGSAGGSAGG [r7_235_TrMRF] | – | 0.68 ± 0.15 | 1.14 ± 0.067
SAGGSAGGSAGMKVDLHLPSEEEARERAEELKEELKKAGAPEDEEVEITIRPVDPAELLLSAGGSAGGSAGG [r17_180_JUSTAS] | 1.24 ± 0.067 | 0.499 ± 0.16 | –
SAGGSAGGSAKKKKKKKKKTEIKTITIPADDLSEEEIKELLSDEEAEKILKNTKPGDTITLSAGGSAGGSAG [r3_326_TrROS_Hall] | 1.05 ± 0.11 | 0.363 ± 0.26 | –
SAGGSAGGSAGGMIPLASVTTERDPNSDNVLVTLTDPSPGAPVTVEVSVEEAEKLIALSSAGGSAGGSAGGS [r10_988_JUSTAS] | 1.82 ± 0.062 | 0.916 ± 0.068 | –
SAGGSAGGSAPDTGSSSFPLDLPEKPVNVTVTSLPENPDLTLITIPGTGEVLVVFPGGEITPLSAGGSAGGS [r12_580_JUSTAS] | 1.33 ± 0.075 | 0.558 ± 0.097 | –
SAGGSAGGSAGGDPLLPLEGVLARVTSVEVEGAFLEPDGRLLGTVRVTVTFVELAPPDNPSAGGSAGGSAGG [r7_614_TrMRF] | – | 2.04 ± 0.074 | 2.48 ± 0.052
SAGGSAGGSAGGSVLFDSEEEAEAALKAAGLELSSVTKTEEDGEPKVLVPVARRPPPALASAGGSAGGSAGG [r11_141_JUSTAS] | – | 0.959 ± 0.086 | 1.44 ± 0.033
SAGGSAGGELLTAEELRALHPDLRIEVRRVRVEREYRLPDVPGRRVREEREVLVVRVVPRDALESAGGSAGG [r6_659_TrROS_Hall] | – | 0.647 ± 0.34 | 1.2 ± 0.26
SAGGGSKTITTTLPETGLTVTTTLEVPSADISIGDLVVTETPLPDATRRTTVTTSLGVTNNATATPVASAGG [r13_515_JUSTAS] | – | 0.509 ± 0.062 | 1.05 ± 0.021
SAGGSAGGSAGGEVLELPNELVLVEKLPENPDVVRVTTITLPPGGTVATQVTLDPVPPELSAGGSAGGSAGG [r17_184_JUSTAS] | – | 0.771 ± 0.091 | 1.16 ± 0.04

2 records picked at random from those above, as already listed:
Sequence | folding stability dG unfold [1] [kcal/mol] | folding stability dG unfold [2] [kcal/mol] | folding stability dG unfold [3] [kcal/mol]
SAGGSAGGSAGGMIPLASVTTERDPNSDNVLVTLTDPSPGAPVTVEVSVEEAEKLIALSSAGGSAGGSAGGS [r10_988_JUSTAS] | 1.82 ± 0.062 | 0.916 ± 0.068 | –
SAGGSAGGSAGGMLAAIIYKEGDEKEIVEFDSVEEVEEKSKELGVEVEIVTKEEAEKLLSAGGSAGGSAGGS [r10_66_TrMRF] | 1.26 ± 0.084 | 0.565 ± 0.24 | –

Carrying on:

Sequence | folding stability dG unfold [1] [kcal/mol] | folding stability dG unfold [2] [kcal/mol] | folding stability dG unfold [3] [kcal/mol]
SAGGSSISVPPGGYVPGSVPNPGGTSRVVITRPGTGEVETYPLGDAVPEVTDDEPVSSTVVETPPSEESAGG [r13_173_JUSTAS] | – | 1.37 ± 0.078 | 2 ± 0.083
SAGAPPPVRIEVRRERLPDRSLRLHAEVRLPDGRLLAEVEAPLDVPDDPEAVTRFLRAVAALAEALAASAGG [r19_13_TrMRF] | – | 2.85 ± 0.076 | 3.3 ± 0.035
SAGGMEVKIEITYDEETGTLTVTAEVKLPDGVTVRVTATITPDGTITITVEVTNKDGEKVTKTVTFPSAGGS [r16_733_TrROS_Hall] | 4 ± 0.46 | – | –
SAGGSAPEVTVEPDPTTGRVTVRVRVPDPETGEWFELVAPTDPAGNVAGVDLHPDGNAATAVALLPSAGGSA [r15_557_TrMRF] | – | 0.54 ± 0.059 | 1.12 ± 0.023
SAGGSAGGSAGGAGPDDTVTIVRVNATPRLDANGNAVDPTADSVEVITVPADNIDDLLNNSAGGSAGGSAGG [r7_439_TrMRF] | – | 0.462 ± 0.085 | 1.04 ± 0.042
GTMQKNGVPIKPIKPIIIEYPVSPNLPNGLPLSPEEVEKLLEEIAEKIKKEKPVKKVTFTKDGDKYILKVES [r1_369_JUSTAS] | – | 0.533 ± 0.22 | 1.23 ± 0.18
SAGGSAGGGAIEEALRELREQAPPGQTLRVRVFNKETGEETEIEVPVEDLEKLEGVERIEVERESAGGSAGG [r6_401_TrROS_Hall] | – | 0.788 ± 0.22 | 1.23 ± 0.27
SAGGSAGGSAGGGMTVTEEEAPDGTRVRTVTRPPEPVTTVVTLAPDGSETVTTIPVVPASAGGSAGGSAGGS [r10_595_JUSTAS] | – | 0.789 ± 0.064 | 1.3 ± 0.024
SAGGSAGGSAGGSSVKTTPEKVPDSTSVTTSELPSGERRVTTKDASGTPSTTTLPPDLTSAGGSAGGSAGGS [r4_120_JUSTAS] | – | 1.03 ± 0.11 | 1.59 ± 0.039
SAGGSAGGSAGGSPETLVERTITVPTTNATGTVTEVVTVPVTARTEEEAEALAAELAAASAGGSAGGSAGGS [r10_57_JUSTAS] | – | 0.558 ± 0.072 | 1.11 ± 0.02
SAGGSAGGSAGGDPNLEAELVATATYTNPLTGKTVTLNVLRVTRSEDGTSAPVVFLEDLSAGGSAGGSAGGS [r10_535_TrMRF] | – | 0.728 ± 0.24 | 1.22 ± 0.21
SAGGPTRVRATIEFPELGVPVEVTVPADDPDMTPEEALRRLRERARRLAELLRRLLELPPAPPPSPELSAGG [r13_126_TrMRF] | – | 2.57 ± 0.068 | 3.105 ± 0.031
SAGGSAGGSAGALPPGAKVRVVRLRDTAPEVREFTIPDEVPSVGAVLDAFPDVVAVELEGSAGGSAGGSAGG [r11_157_TrMRF] | – | 1.01 ± 0.13 | 1.62 ± 0.078
SAGGSAGGSAGGSPPVTELRVSGDNIVPPALVRLPDGSVLLYYPYGDELRLLVVPYGAASAGGSAGGSAGGS [r4_279_TrMRF] | – | 0.776 ± 0.084 | 1.56 ± 0.039
SAGGSAGGSAGGSAPDDPSAPPVLVFTVRYRLDADDAVVEFTARVAVLPDGVAVSFDPTSAGGSAGGSAGGS [r4_145_TrMRF] | – | 3.48 ± 0.059 | 3.94 ± 0.045
SAGGSAGGDRFTIINLHPNPDGQYWIHVHEIEWEPVDGQPRLEIEPRTIRLPGDPEDALDAALDSAGGSAGG [r6_129_TrROS] | – | 0.277 ± 0.1 | 1.07 ± 0.081
SAGGSAGGSAGGSAPPPPPLTLEVSVLLPDGTVARARVTLNEDGELTVEVELVPLPEGLSAGGSAGGSAGGS [r4_248_TrROS_Hall] | – | 0.638 ± 0.22 | 1.04 ± 0.07
SAGGSAGGSAGGMLLVFEDGKVYPFEDLEDVEEAVKTIRTPLGRPDAKIEIYDLPPELIPSAGGSAGGSAGG [r7_839_TrMRF] | – | 0.718 ± 0.14 | 1.23 ± 0.062
SAGGSAGGSAGGSVEERVEEEVERVRAAHPVEVLPVEVEVEVGDEPVRAEVPVVVPGPGSAGGSAGGSAGGS [r10_1204_JUSTAS] | – | 0.793 ± 0.097 | 1.39 ± 0.063
SAGGASLVEHPDGSVIPDVNPRGGLDRITAKRPKSGEIVTRPVPADESFTVPPDEPVEAVDTTDWPGSAGGS [r16_123_JUSTAS] | – | 0.652 ± 0.069 | 1.13 ± 0.019
SAGGSAGGSAGGSKVLVIDLPDGTKIAFVPETGKVFIFPKGGEKKEFPNLTLADLLKARSAGGSAGGSAGGS [r10_569_TrMRF] | – | 1.12 ± 0.23 | 1.95 ± 0.12
